Results reported in publication PMC10719208.
These are yes or no findings as the source states them, for the method shown. A result given as binding can be weak or reduced; the word gives no strength. For part of these data: In cells and extracts the contact can be indirect. For part of these data: Where a sequence is shown, tags or fusion partners need not be part of it.

Key:
WLP3-nCFP (rice) = target: T1, WLP3-nCFP (rice) (UniProt Q8SAY0); assay: split reporter; BiFC: WLP3 constructs on nCFP and ribosomal proteins on cCFP, transiently co-expressed in tobacco leaf epidermal cells by Agrobacterium EHA105; confocal imaging 24-48 h after co-transformation
T1 sequence: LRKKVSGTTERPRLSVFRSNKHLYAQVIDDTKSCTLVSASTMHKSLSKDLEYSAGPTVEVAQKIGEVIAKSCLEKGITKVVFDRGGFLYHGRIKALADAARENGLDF

[1] = target: T2, WLP3-C (51-170aa) on nCFP (rice) (UniProt Q8SAY0); assay: as above
T2 sequence: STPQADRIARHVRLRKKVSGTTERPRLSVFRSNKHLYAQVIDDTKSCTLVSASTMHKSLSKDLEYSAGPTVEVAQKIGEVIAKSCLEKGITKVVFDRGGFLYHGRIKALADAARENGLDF

[2] = target: T3, WLP3 (chloroplast ribosomal protein L18), full-length coding region in pGBKT7 (rice) (UniProt Q8SAY0); assay: two-hybrid; WLP3 in pGBKT7 (bait), ribosomal proteins in pGADT7 (prey), yeast strain AH109; growth on triple and quadruple dropout plates (SD/-Leu/-Trp/-His/-Ade)
T3 sequence: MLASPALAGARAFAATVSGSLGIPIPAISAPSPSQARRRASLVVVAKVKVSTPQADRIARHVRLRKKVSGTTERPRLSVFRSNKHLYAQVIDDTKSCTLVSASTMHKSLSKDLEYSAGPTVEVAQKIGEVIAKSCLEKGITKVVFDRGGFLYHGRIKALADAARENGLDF

binding (WLP3-nCFP (rice))	binding [1]	binding [2]	Substance
binds	binds	–	cCFP-RPL9
–	–	binds	RPL5, full-length coding sequence in pGADT7
binds	binds	–	cCFP-ASL2 (rice)
–	–	binds weakly	RPL9, full-length coding sequence in pGADT7
binds	binds	–	cCFP-RPL4
binds	binds	–	cCFP-WGL2 (rice)
–	–	binds	WGL2 (PRPS9), full-length coding sequence in pGADT7 (rice)
–	–	binds	RPL4, full-length coding sequence in pGADT7
–	–	binds	ASL2 (PRPL21), full-length coding sequence in pGADT7 (rice)
binds	binds	–	cCFP-RPL5
–	–	binds	RPS6, full-length coding sequence in pGADT7
binds	binds	–	cCFP-RPS6
